In US7790673 one finds binding data, which are given here for two molecules.

The experiment concerns the target GST protein without the Aβ sequence. In words: GST pull-down from HEK293 culture media, immunoblot with anti-cystatin C antibody. On the technique in general: A western blot detects proteins with antibodies after separation by electrophoresis.

These are yes or no findings as the source states them, for the method shown.

B1: wild type human cystatin C (protein, UniProt P01034 27-146, looked up)
chain: SSPGKPPRLVGGPMDASVEEEGVRRALDFAVGEYNKASNDMYHSRALQVVRARKQIVAGVNYFLDVELGRTTCTKTQPNLDNCPFHDQPHLKRKAFCSFQIYAVPWQGTMTLSKSTCQDA
With B1, the binding entry is on record as “no binding”.

B2: variant human cystatin C (L68Q, HCHWA-I variant) (protein, UniProt P01034 27-146, looked up)
chain: SSPGKPPRLVGGPMDASVEEEGVRRALDFAVGEYNKASNDMYHSRALQVVRARKQIVAGVNYFLDVEQGRTTCTKTQPNLDNCPFHDQPHLKRKAFCSFQIYAVPWQGTMTLSKSTCQDA
As for B2, the binding result is on record as “no binding”.
